Values quoted from earlier work in patent US20030152515A1, “Method for estimating effective regimens and patient survival rates of antibiotic treatments for fatal infectious diseases” (priority 2002, published 2003).

Key:
[1] = tested on: gram positive and gram negative bacteria; conditions: human, in vivo; cited from earlier work
[2] = tested on: gram-positive and gram-negative organisms; conditions: in vivo; cited from earlier work

SMILES: O=C(O)c1cn(C2CC2)c2cc(N3CCNCC3)c(F)cc2c1=O [ciprofloxacin]
- patients remaining culture-positive [1]: more than 60%
- AUC/MIC values associated with minimum mortality rates [2]: 100 to 150
